Laboratory results published in US20210381051A1, “DNA METHYLATION BIOMARKER OF AGING FOR HUMAN EX VIVO AND IN VIVO STUDIES” (The Regents of the University of California, priority 2018, published 2021).
At least one compound was matched to its structure with a doubt left.

Key:
[1] = system: primary human keratinocytes from neonatal foreskins; test: Ex vivo human cell aging assay: DNAm age of cultured keratinocytes by the skin & blood clock; format: cell-based
Excerpt: FIG. 6. Ex vivo study of compounds that may accelerate or decelerate epigenetic aging. A) Effect of Y-27632 and rapamycin treatment on neonatal keratinocytes measured by the skin & blood clock. B) Effect of oestrogen on neonatal dermal fibroblasts.
By its ability to quantitatively track aging of human cells ex vivo, the skin & blood clock lends itself to be used in the development of an ex vivo human cell aging assay that can be used for testing and screening compounds with anti-aging or pro-aging effects.
(§1) Primary keratinocytes were isolated from human neonatal foreskins from three donors (Donor A, B and C) and were put in culture with standard media or media supplemented with rapamycin, Y-27632 or a cocktail of both of these compounds (methods). The cells were passaged continually and population doublings at each passage recorded. In time all cells, regardless of donor or treatment underwent replicative senescence, where they ceased to increase their numbers after at least 2 weeks in culture with regular replenishment of media. […] DNA methylation profiles from a selection of passages of these cells were obtained and analysed with the skin & blood clock. […]
(§2) Primary human neonatal fibroblasts were isolated from circumcised foreskins. […] Upon confluence, cells were trypsinised, counted and 100,000 were seeded into fresh fibronectin/collagen-coated plates. […]

[2] = system: primary human keratinocytes; test: Keratinocyte proliferation rate and proliferative capacity (population doublings); format: cell-based
Excerpt: The availability of an epigenetic clock, such as the skin & blood clock, which is applicable to cultured cells, allows epigenetic ageing to be studied beyond the purely descriptive nature afforded by epidemiological analyses alone. Towards this end, we have established in vitro epigenetic ageing systems using primary human cells. One of this is based on primary keratinocytes that are derived from healthy human skins. […] The opposing effects of these compounds on keratinocyte proliferation present us with the opportunity to test whether cellular proliferation rate impacts epigenetic ageing while carrying out our primary aim of interrogating the effects of rapamycin on epigenetic ageing.
as §1, with “recorded.” for “recorded. In time all cells, regardless of donor or treatment underwent replicative senescence, where they ceased to increase their numbers after at least 2 weeks in culture with regular replenishment of media.”
as §2

[3] = system: primary human keratinocytes; test: Keratinocyte morphology and p16 / involucrin immunofluorescence (senescent and differentiating cells); format: cell-based
keratinocytes = test: DNAm age of cultured keratinocytes by the pan-tissue clock (Horvath 2013); format: cell-based, human; conditions: pan-tissue clock instead of the skin & blood clock
[4] = system: progerin accumulation in HGPS cells; conditions: in vitro studies [41, 42]; cited from earlier work

CO[C@H]1C[C@@H]2CC[C@@H](C)[C@@](O)(O2)C(=O)C(=O)N2CCCC[C@H]2C(=O)O[C@H]([C@H](C)C[C@@H]2CC[C@@H](O)[C@H](OC)C2)CC(=O)[C@H](C)/C=C(\C)[C@@H](O)[C@@H](OC)C(=O)[C@H](C)C[C@H](C)/C=C/C=C/C=C/1C [rapamycin]
epigenetic aging (skin & blood clock), FIG. 6A ([1]; Example 1, dividing / neonatal keratinocytes, suggestive evidence): slows epigenetic aging | epigenetic ageing (skin & blood clock) ([1]; Example 2, neonatal foreskin keratinocytes of three donors, CnT-07 medium, rapamycin 25 nM, Y-27632 1 μM, present for the entire duration): retarded epigenetic ageing | proliferative capacity (proliferation before replicative senescence) ([2]; keratinocytes of three donors, two of the three donor cells for rapamycin): proliferative capacity was increase | cellular proliferation rate (population doublings per unit of time) ([2]; primary keratinocytes, rapamycin 25 nM, Y-27632 1 μM): reduces cellular proliferation rate | emergence of senescent cells in cultures ([3]; keratinocyte cultures): reduce the emergence of these cells | enlarged cells (mixture of senescent and differentiating cells) in culture ([3]; primary keratinocytes grown in the presence of rapamycin): considerably fewer enlarged cells | anti-aging effect according to the original pan-tissue clock (keratinocytes): nor could they reveal an anti-aging effect | progerin accumulation and cellular HGPS phenotypes [4]: reduction of progerin accumulation
